The assay can be described thus: qHTS Assay for Modulators of Lamin A Splicing. The conditions noted are these: HeLa LMNA splicing GFP/RFP minigene ratio, 48 h. In a few lines:
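S3 HeLa stable clones carrying a lamin A-EGFP splicing minigene plus DsRed2 were seeded at 600 cells/well in Opti-MEM with 2% FBS, pin-dosed and incubated 48 h at 37°C. Acumen cytometry (488 nm) gave the GFP/RFP total-intensity ratio.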
(In general: Quantitative high-throughput screening tests each substance at several concentrations.)

The mark [1] stands for this setting: measured here: GFP splicing reporter channel.
Setting [2] is: measured here: RFP viability control channel.

The list shows a part of the results. Shown are side measurements of this screen, not its main read-out; they come without a call. Most of these compounds were active or inconclusive in the main read-out, so they are no random draw. Potencies come from curve fits of mixed quality, noted in brackets.

`CCc1nnc(NS(=O)(=O)c2ccc(NC(=S)NC(=O)c3cccnc3)cc2)s1`: the AC50 (usually the concentration giving half of the maximal activity seen) under setting [1] is 0.891 µM [falling, full curve, poor fit].

In the case of `CC(C)(C)C1CCC(OCC(O)CN2CCN(Cc3ccccc3)CC2)CC1` (configuration not stated), the AC50 under setting [2] was 12.6 µM [rising, partial curve].

For `Cc1ccc(Nc2nc(CSc3nnc(-c4ccccc4)n3C)cs2)cc1`, the AC50 is 14.1 µM [rising, partial curve] under setting [1] and 17.8 µM [rising, partial curve] under setting [2].

On to `CSc1ccc(C(=O)C2CCCN(S(=O)(=O)c3c(C)noc3C)C2)cc1` (configuration not stated), for which the AC50 was 8.91 µM [falling, partial curve] under setting [1] and 7.08 µM [falling, full curve] under setting [2].

Turning to `N=c1c2c3c(sc2ncn1CCN1CCOCC1)CCCC3`, the AC50 runs as follows: under setting [1], 35.5 µM [rising, partial curve]; under setting [2], 35.5 µM [rising, partial curve].

As to `N#Cc1nc(Cc2cccc3ccccc23)oc1N1CCC(C(N)=O)CC1`, the AC50 runs as follows: under setting [1], 12.6 µM [rising, single point]; under setting [2], 12.6 µM [rising, single point].

Take `O=C(Nc1ccc(N2CCOCC2)nc1)c1ccc(C(F)(F)F)cc1`: under setting [1], the AC50 is 0.01 µM [falling, full curve, poor fit].

Regarding `COc1cccc(-c2nc(NC3CC3)c3ccccc3n2)c1`, the AC50 is 20 µM [falling, partial curve] under setting [1] and 35.5 µM [falling, single point] under setting [2].

As to `CC1=CC(=O)N(c2ccc(C)cc2)C1c1ccc(Cl)cc1` (configuration not stated), the AC50 under setting [1] is 14.1 µM [rising, single point].

For the molecule `Cc1ccc(Nc2cc(-n3nc(C)cc3C)ncn2)cc1`, the AC50 under setting [2] is 8.91 µM [rising, partial curve, poor fit].

On to `COc1ccccc1CNc1ccnc(-c2ccc(N(C)C)cc2)n1`, for which the half-maximal activity concentration (AC50) by setting is: under setting [1], 12.6 µM [falling, partial curve]; under setting [2], 12.6 µM [falling, partial curve].

For `Cc1ccc(Nc2nc(C(N)=O)c(NC(=O)c3ccccc3Br)s2)cc1`, the AC50 by setting is: under setting [1], 2.51 µM [falling, full curve, poor fit]; under setting [2], 2.51 µM [falling, partial curve, poor fit].

In the case of `Nc1oc2ccc(F)cc2c(=O)c1C=O`, the AC50 was 1 µM [falling, partial curve] under setting [1] and 1.26 µM [falling, full curve, poor fit] under setting [2].

In the case of `O=C(Nc1cccc(Cl)c1)Nc1nnc(-c2ccncc2)s1`, the half-maximal activity concentration (AC50) under setting [1] was 2.51 µM [rising, full curve] and the AC50 under setting [2] is 4.47 µM [rising, full curve].

For `C/C(N)=C(/C#N)C(=O)COC(=O)c1ccccc1Cc1ccccc1`, the AC50 under setting [1] was 5.01 µM [falling, full curve, poor fit].

Regarding `Cc1cccc(NC(=S)N(Cc2ccc(Br)cc2)Cc2ccc(C(=O)O)cc2)c1`, the AC50 reads like this: under setting [1], 35.5 µM [falling, single point]; under setting [2], 20 µM [falling, single point].

Take `O=C(Nc1nc2c(c(=O)[nH]1)CCCC2)C1CC1`: under setting [2], the AC50 is 22.4 µM [rising, single point].

Consider `Cc1ccc(NC(=O)CC2Nc3ccccc3NC2=O)cc1Cl` (configuration not stated), for which the AC50 is, setting by setting: under setting [1], 15.8 µM [falling, single point]; under setting [2], 17.8 µM [falling, partial curve].

`CC(C)(C)C(=O)Nc1ccc2nc(SCc3ccccc3)sc2c1`: under setting [2], the AC50 was 35.5 µM [rising, single point].

Consider `CCn1c(SCC(=O)Nc2ccc3c(c2)OCO3)nc2ccccc21`, for which, under setting [2], the AC50 was 10 µM [rising, partial curve].

For the molecule `CO/N=C/c1ccc(Oc2ccc([N+](=O)[O-])cc2[N+](=O)[O-])c(OC)c1`, the AC50 under setting [2] is 31.6 µM [rising, single point].

In the case of `COc1ccc(S(=O)(=O)N2CCC(C(=O)N3CCOCC3)CC2)cc1Cl`, the AC50 by setting is: under setting [1], 6.31 µM [falling, single point]; under setting [2], 5.62 µM [falling, single point].

As for `C[N+]1(C)C[C@@H](O)C[C@@H]1C(=O)[O-]`, the AC50 is 0.0316 µM [falling, partial curve, poor fit] under setting [1] and 0.0708 µM [falling, full curve, poor fit] under setting [2].

Take `CC(=O)Nc1ccc(NC(=O)COC(=O)C2(c3ccc(Cl)cc3)CCCC2)cc1`: under setting [2], the AC50 was 11.2 µM [rising, partial curve].

For `COc1ccc(C(=O)n2c(-c3ccco3)nc3ccccc32)cc1`, the AC50 is 11.2 µM [rising, partial curve] under setting [1] and 10 µM [rising, partial curve] under setting [2].

On to `CCOC(=O)c1ccc(O)cc1`, for which the AC50 under setting [1] is 0.00316 µM [falling, full curve, poor fit].

On to `c1ccc(Cn2c(-c3ccccc3)nc3nc4ccccc4nc32)cc1`, for which the AC50 by setting is: under setting [1], 12.6 µM [rising, partial curve]; under setting [2], 35.5 µM [rising, single point].

For the molecule `Cc1ccc(Cl)cc1N1CCN(C(=O)c2ccc3nc[nH]c3c2)CC1`, the AC50 is, setting by setting: under setting [1], 0.355 µM [rising, single point]; under setting [2], 20 µM [rising, partial curve, poor fit].

Regarding `C=CCn1c2ccccc2c2nnc(SCCCn3c(=O)[nH]c4ccccc43)nc21`, the AC50 under setting [2] is 12.6 µM [rising, partial curve, poor fit].

`CC(C)c1ccc(/C=C/C(=O)Nc2nn[nH]n2)cc1`: the AC50 under setting [1] is 1 µM [rising, partial curve, poor fit].

`O=C(N/N=C/c1ccc(-c2ccccc2[N+](=O)[O-])o1)[C@H]1C[C@@H]1c1ccccc1`: under setting [2], the AC50 was 31.6 µM [rising, single point].

Consider `CC1=C(C(=O)Nc2cccc(F)c2)C2(CCCCC2)OC1=O`, for which the AC50 under setting [1] was 0.0316 µM [rising, full curve, poor fit].

With `CCCC(=O)NC(=S)NNC(=O)c1ccc([N+](=O)[O-])cc1`, the AC50 under setting [2] was 12.6 µM [rising, single point].

Turning to `CCCCCCC(=O)N(O)C1CC(=O)N(c2ccccc2)C1=O` (configuration not stated), the AC50 under setting [1] is 35.5 µM [falling, single point] and the AC50 under setting [2] was 5.01 µM [rising, single point].

For the molecule `O=C(O/N=C(\c1ccccc1)c1ccncc1)c1ccccc1Cl`, under setting [1], the AC50 is 4.47 µM [rising, partial curve, poor fit].

The record behind these values is PubChem BioAssay AID1487 (National Center for Advancing Translational Sciences (NCATS), 2009).
